Entries after “also recorded” stand apart in the source; their conditions may differ. At least one peptide structure holds a part that was inferred or is arguable (an end, a ring closure or a residue). Some entries repeat one wording, which the source may state once for all of them. Some results were stated once for a whole list of compounds, not compound by compound. Residues, ends and D or L forms follow the SMILES beside them.
What was measured:
[1] = test system: T cell lines primed with purified native Der p II; assay: T cell epitope studies with modified peptides, T cell lines primed with Der p II (Example XIV, FIGS. 32a-b); type: cell-based, human; conditions: 21 patients
[2] = test system: T cell lines primed with purified native Der p I; assay: T cell epitope studies with modified peptides, T cell lines primed with Der p I (Example XIV, FIGS. 31a-b); type: cell-based, human; conditions: 18 patients
human IgE = assay: Direct binding ELISA of IgE to mite allergen proteins and peptides (Examples XIII, XV); conditions: plasma from 19 mite-allergic patients and a pool of 18 additional patients; Example XV
Experimental: Corning assay plates (#25882-96) were coated with 5 μg/ml of each coating antigen listed in FIGS. 19, 20 and 21 at […] and incubated overnight at 4° C. The coating antigens were removed and the wells are blocked with 0.5% gelatin in PBS, 300 μl/well for 2 hours at room temperature. […] Louis, Mo.) and 100 μl/well a\was added and incubated overnight at 4° C. (plasma dilutions were tested in duplicate). The second antibody (biotinylated goat anti-Human IgE, 1:1000, Kirkegaard & Perry Laboratories Inc, Gaithersburg, Md.), was added at 100 μl/well for one hour at room temperature. This solution was removed and streptavidin-HRPO, 1:10000, (Southern Biotechnology Associates, Inc., Birmingham, Ala.) was then added at 100 μl/well for one hour at room temperature (all wells are washed three times with PBS-Tween between each incubation step). TMB Membrane Peroxidase Substrate system (Kirkegaard & Perry Laboratories) was freshly miced, and added at […]. The color was allowed to develop for 2-5 minutes. The reaction was stopped by the addition of […] of 1M phosphoric acid. Plates were read on a Microplate IL310 Autoreader (Biotech Instruments, Winooski, Vt.) with a 450 nm filter. The absorbance levels of duplicate wells were averaged. The order of coating antigens listed vertically in these figure legends corresponds in […] from left to right to the coating antigens listed for each histogram.

[3] = test system: PBMC from mite-allergic patient; assay: Primary PBMC proliferation (3H-thymidine) to Der p I/Der p II proteins and peptides, Example IV; type: cell-based, human; conditions: for CPM ± S.D.: 7 days culture; for S.I.: CPM with antigen / CPM medium only
[4] = test system: Der p I primed T cell lines; assay: Secondary T cell proliferation assay, T cell lines primed in vitro with Der p I (Examples V, VII, XI, XII); type: cell-based, human; conditions: for S.I. with which this patient responds: individual 543, primed with 20 μg/ml purified native Der p I, data not shown
[5] = test system: Secondary T cell cultures reactive with Der p I protein allergen; assay: Percentage of total Group I T cell reactivity and patient coverage of candidate peptides (Example XVII); type: cell-based, human; conditions: patient 1733; highest S.I. >= 2.0 recorded per peptide
[6] = test system: Der p II primed T cell lines; assay: Secondary T cell proliferation assay, T cell lines primed in vitro with Der p II (Examples VIII, X, XI, XII); conditions: Der p II T-cell map and analogs of parent peptide DpII-22; data not shown
[7] = test system: Der f I primed T cell lines; assay: Secondary T cell proliferation assay, T cell lines primed in vitro with Der f I (Examples VI, VII, XI); type: cell-based, human; conditions: 8 positive experiments, FIG. 8

CC[C@H](C)[C@H](NC(=O)[C@H](CCC(=O)O)NC(=O)[C@H](Cc1c[nH]cn1)NC(=O)[C@H](CC(N)=O)NC(=O)[C@H](C)NC(=O)[C@H](CS)NC(=O)[C@H](CC(=O)O)NC(=O)[C@H](CCCCN)NC(=O)[C@@H](NC(=O)[C@H](CC(=O)O)NC(=O)[C@@H](NC(=O)[C@H](CCC(N)=O)NC(=O)[C@@H](N)CC(=O)O)C(C)C)C(C)C)C(=O)N[C@@H](CCCCN)C(=O)N[C@@H](CCCCN)C(=O)N[C@H](C(=O)N[C@@H](CC(C)C)C(=O)N[C@H](C(=O)N1CCC[C@H]1C(=O)NCC(=O)N[C@@H](CS)C(=O)N[C@@H](Cc1c[nH]cn1)C(=O)NCC(=O)N[C@@H](CO)C(=O)N[C@@H](CCC(=O)O)C(=O)N1CCC[C@H]1C(=O)O)C(C)C)C(C)C [DP II-20] (H-DQVDVKDCANHEIKKVLVPGCHGSEP-OH; N-terminus and C-terminus assumed)
T cell response to peptide [1]: positive

CC(C)[C@H](NC(=O)CNC(=O)[C@H](CCC(=O)O)NC(=O)[C@H](CCCCN)NC(=O)[C@H](CCC(=O)O)NC(=O)[C@@H](N)CC(=O)O)C(=O)N[C@H](C(=O)N[C@@H](CCC(N)=O)C(=O)N[C@@H](CCC(=O)O)C(=O)N[C@@H](CO)C(=O)N[C@@H](Cc1ccc(O)cc1)C(=O)N[C@@H](Cc1ccc(O)cc1)C(=O)N[C@@H](CCCNC(=N)N)C(=O)N[C@@H](Cc1ccc(O)cc1)C(=O)N[C@H](C(=O)N[C@@H](C)C(=O)N[C@@H](CCCNC(=N)N)C(=O)N[C@@H](CCC(=O)O)C(=O)N[C@@H](CCC(N)=O)C(=O)N[C@@H](CO)C(=O)N[C@@H](CS)C(=O)N[C@@H](CCCNC(=N)N)C(=O)N[C@@H](CCCNC(=N)N)C(=O)N1CCC[C@H]1C(=O)N[C@@H](CC(N)=O)C(=O)N[C@@H](C)C(=O)N[C@@H](CC(=O)O)C(=O)N[C@@H](CCCCN)C(=O)N[C@@H](CCC(=O)O)C(=O)O)C(C)C)C(C)C [DP I-23.35] (H-DEKEGVVQESYYRYVAREQSCRRPNADKE-OH; N-terminus and C-terminus assumed)
T cell response to peptide [2]: responded positively; also recorded: positive | IgE binding in direct ELISA (human IgE): No plasma samples contained IgE

CC[C@H](C)[C@H](NC(=O)[C@H](CCC(=O)O)NC(=O)[C@H](Cc1c[nH]cn1)NC(=O)[C@H](CC(N)=O)NC(=O)[C@H](C)NC(=O)[C@H](CS)NC(=O)[C@H](CC(=O)O)NC(=O)[C@H](CCCCN)NC(=O)[C@@H](NC(=O)[C@H](CC(=O)O)NC(=O)[C@@H](NC(=O)[C@H](CCC(N)=O)NC(=O)[C@@H](N)CC(=O)O)C(C)C)C(C)C)C(=O)N[C@@H](CCCCN)C(=O)N[C@@H](CCCCN)C(=O)N[C@H](C(=O)N[C@@H](CC(C)C)C(=O)N[C@H](C(=O)N1CCC[C@H]1C(=O)NCC(=O)N[C@@H](CS)C(=O)N[C@@H](Cc1c[nH]cn1)C(=O)NCC(=O)N[C@@H](CO)C(=O)N[C@@H](CCC(=O)O)C(=O)NCC(=O)O)C(C)C)C(C)C [DP II-20.10] (H-DQVDVKDCANHEIKKVLVPGCHGSEG-OH; N-terminus and C-terminus assumed)
IgE binding in direct ELISA (human IgE): No plasma samples contained IgE | T cell response to peptide [1]: responded positively; also recorded: positive

CC[C@H](C)[C@H](NC(=O)[C@H](Cc1c[nH]c2ccccc12)NC(=O)[C@H](Cc1ccc(O)cc1)NC(=O)[C@H](CC(=O)O)NC(=O)[C@@H](NC(=O)CNC(=O)[C@@H](N)CCC(N)=O)C(C)C)C(=O)N[C@H](C(=O)N[C@@H](CCCNC(=N)N)C(=O)N[C@@H](CC(N)=O)C(=O)N[C@@H](CO)C(=O)N[C@@H](Cc1c[nH]c2ccccc12)C(=O)N[C@@H](CC(=O)O)C(=O)N[C@H](C(=O)N[C@@H](CC(N)=O)C(=O)N[C@@H](Cc1c[nH]c2ccccc12)C(=O)NCC(=O)N[C@@H](CC(=O)O)C(=O)N[C@@H](CC(N)=O)C(=O)NCC(=O)N[C@@H](Cc1ccc(O)cc1)C(=O)NCC(=O)N[C@@H](Cc1ccc(O)cc1)C(=O)N[C@@H](Cc1ccccc1)C(=O)O)[C@@H](C)O)C(C)C [DP I-10] (H-QGVDYWIVRNSWDTNWGDNGYGYF-OH; N-terminus and C-terminus assumed)
CPM ± S.D. ([3]; antigen 10 μg/ml): 1936 ± 50 CPM | S.I. ([3]; antigen 10 μg/ml): 1.8 | CPM ± S.D. ([3]; antigen 30 μg/ml): 3042 ± 89 CPM | S.I. ([3]; antigen 30 μg/ml): 2.8 | CPM ± S.D. ([3]; antigen 100 μg/ml): 2644 ± 63 CPM | S.I. ([3]; antigen 100 μg/ml): 2.5 | S.I. with which this patient responds ([3]; text summary of Table I): at least 2.0 | T cell reactivity of overlapping Der p I peptides in panel of patients ([4]; 33 positive experiments): significant regions of T cell reactivity | S.I. with which this patient responds [4]: at least 2.0 | STIMULATION INDEX [5]: 0

CC[C@H](C)[C@H](NC(=O)[C@H](CO)NC(=O)[C@H](C)NC(=O)[C@H](CCCCN)NC(=O)[C@@H](NC(=O)[C@H](CCC(=O)O)NC(=O)[C@@H](NC(=O)[C@H](CCCCN)NC(=O)[C@H](C)NC(=O)[C@@H](NC(=O)[C@H](CCCCN)NC(=O)[C@@H](NC(=O)[C@H](CC(N)=O)NC(=O)[C@H](CCC(N)=O)NC(=O)[C@H](CC(N)=O)NC(=O)[C@H](C)NC(=O)[C@H](CCC(=O)O)NC(=O)[C@H](Cc1ccccc1)NC(=O)[C@@H](NC(=O)[C@H](C)NC(=O)[C@H](CCC(=O)O)NC(=O)[C@H](CC(C)C)NC(=O)[C@@H](N)CCC(N)=O)C(C)C)[C@@H](C)O)[C@@H](C)O)[C@@H](C)CC)[C@@H](C)CC)C(=O)N[C@@H](CC(=O)O)C(=O)NCC(=O)N[C@@H](CC(C)C)C(=O)N[C@@H](CCC(=O)O)C(=O)N[C@H](C(=O)O)C(C)C [DP II-22] (H-QLEAVFEANQNTKTAKIEIKASIDGLEV-OH; N-terminus and C-terminus assumed)
T-cell reactivity (in words) [6]: exhibits most of the reactivity found in the individual peptides | T cell response to peptide [1]: positive

CC[C@H](C)[C@H](NC(=O)[C@H](CCC(N)=O)NC(=O)[C@H](CS)NC(=O)[C@H](Cc1ccc(O)cc1)NC(=O)[C@H](CC(N)=O)NC(=O)[C@H](CO)NC(=O)[C@@H](NC(=O)CNC(=O)[C@H](Cc1ccccc1)NC(=O)[C@H](CCCNC(=N)N)NC(=O)[C@H](CCC(N)=O)NC(=O)[C@H](C)NC(=O)[C@H](CC(N)=O)NC(=O)[C@@H]1CCCN1C(=O)[C@H](CCCNC(=N)N)NC(=O)[C@H](CCCNC(=N)N)NC(=O)[C@H](CS)NC(=O)[C@H](CO)NC(=O)[C@@H](N)CCC(N)=O)[C@@H](C)CC)C(=O)O [DP I-14] (H-QSCRRPNAQRFGISNYCQI-OH; N-terminus and C-terminus assumed)
response of Der f I primed T cells to Der p I peptides (cross-reactivity) [7]: respond significantly | STIMULATION INDEX [5]: 2.3

CC[C@H](C)[C@H](NC(=O)[C@H](C)NC(=O)[C@H](CS)NC(=O)[C@H](C)NC(=O)[C@H](CC(C)C)NC(=O)[C@@H](NC(=O)CNC(=O)[C@H](CC(=O)O)NC(=O)[C@H](CC(=O)O)NC(=O)CNC(=O)[C@H](CCSC)NC(=O)[C@@H](NC(=O)[C@H](CCCCN)NC(=O)[C@@H](NC(=O)[C@@H](N)[C@@H](C)O)C(C)C)C(C)C)C(C)C)C(=O)N[C@@H](C)C(=O)N[C@H](C(=O)N[C@@H](Cc1c[nH]cn1)C(=O)N[C@@H](C)C(=O)N[C@@H](CCCCN)C(=O)N[C@H](C(=O)N[C@@H](CCCNC(=N)N)C(=O)N[C@@H](CC(=O)O)C(=O)O)[C@@H](C)CC)[C@@H](C)O [DP II-25] (H-TVKVMGDDGVLACAIATHAKIRD-OH; N-terminus and C-terminus assumed)
T cell response to peptide [1]: positive

CC[C@H](C)[C@H](NC(=O)CNC(=O)[C@H](Cc1ccccc1)NC(=O)[C@@H](N)CCCNC(=N)N)C(=O)N[C@@H](CO)C(=O)N[C@@H](CC(N)=O)C(=O)N[C@@H](Cc1ccc(O)cc1)C(=O)N[C@@H](CS)C(=O)N[C@@H](CCC(N)=O)C(=O)N[C@H](C(=O)N[C@@H](Cc1ccc(O)cc1)C(=O)N1CCC[C@H]1C(=O)N1CCC[C@H]1C(=O)N[C@@H](CC(N)=O)C(=O)N[C@@H](C)C(=O)N[C@@H](CC(N)=O)C(=O)N[C@@H](CCCCN)C(=O)N[C@H](C(=O)N[C@@H](CCCNC(=N)N)C(=O)N[C@@H](CCC(=O)O)C(=O)N[C@@H](C)C(=O)N[C@@H](CC(C)C)C(=O)O)[C@@H](C)CC)[C@@H](C)CC [DP I-15] (H-RFGISNYCQIYPPNANKIREAL-OH; N-terminus and C-terminus assumed)
response of Der f I primed T cells to Der p I peptides (cross-reactivity) [7]: respond significantly | S.I. with which this patient responds [4]: at least 2.0 | STIMULATION INDEX [5]: 2.8
